{
  "source": "the supplement of paper PMC4604168 (melanoma cell lines)",
  "note": "The list shows a part of the results. Single values are uncertain, as repeats are few or missing.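 The apoptosis fraction was the count of cleaved-PARP antibody-stained nuclei relative to all DNA-stained nuclei, imaged in 1,536-well plates. Screening doses were set so most cells survived, and baseline and induced cleaved-PARP levels vary greatly across cell lines.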",
  "data": [
    {"test_system": "G361", "experiment": "cleaved PARP positive nuclei fraction relative to DMSO control; melanoma cells; higher = more apoptosis", "settings": "library dose: low library concentration; 72 h", "units": {"cleaved PARP positive nuclei fraction": "%"}, "values": [
      {"compound": "NCC(=O)Nc1ccc(-n2nc(C(F)(F)F)cc2-c2ccc3c(ccc4ccccc43)c2)cc1", "note": "+ O=S(=O)(c1ccccc1)N(CC(F)(F)F)c1ccc(C(O)(C(F)(F)F)C(F)(F)F)cc1 [T0901317] (first compound 1 µM, partner dose 1.4 µM)", "cleaved PARP positive nuclei fraction": 116},
      {"compound": "CCCCCCCCCCCC1=C(O)C(=O)C=C(O)C1=O", "note": "[Embelin] + CC(C)CCN1c2nc(Nc3cc(F)c(O)c(F)c3)ncc2N(C)C(=O)C1C [BID1870] (first compound 1.2 µM, partner dose 0.2 µM)", "cleaved PARP positive nuclei fraction": 133},
      {"compound": "CCc1ccc(CCOc2ccc(CC3SC(=O)NC3=O)cc2)nc1", "note": "(stereo unspecified) [pioglitazone] + Oc1nc(-c2ccc(C(F)(F)F)cc2)nc2c1CSCC2 [XAV939] (first compound 2 µM, partner dose 2 µM)", "cleaved PARP positive nuclei fraction": 182},
      {"compound": "COc1ccc2c(c1)CCC1C2CCC2(C)C(NCCCCCCN3C(=O)C=CC3=O)CCC12", "note": "(stereo unspecified) + COc1cc2ncnc(Nc3ccc(Oc4ccccc4)cc3)c2cc1OC [SrcI1] (first compound 0.4 µM, partner dose 2 µM)", "cleaved PARP positive nuclei fraction": 66.8},
      {"compound": "COc1ccc2c(c1)CCC1C2CCC2(C)C(NCCCCCCN3C(=O)C=CC3=O)CCC12", "note": "(stereo unspecified) + Oc1cc(-c2nc(-c3ccccc3)[nH]c2-c2ccncc2)ccc1Cl [L779450] (first compound 0.4 µM, partner dose 0.2 µM)", "cleaved PARP positive nuclei fraction": 238},
      {"compound": "COc1cc2ncnc(Nc3ccc(Oc4ccccc4)cc3)c2cc1OC", "note": "+ Cc1cc([N+](=O)[O-])ccc1NS(=O)(=O)c1cc(Cl)ccc1Cl [FH535] (first compound 2 µM, partner dose 1 µM)", "cleaved PARP positive nuclei fraction": 73.6},
      {"compound": "O=C(Nc1ccccc1)c1cc([N+](=O)[O-])ccc1Cl", "note": "+ CCN(CC)CCCCNc1ncc2cc(-c3cc(OC)cc(OC)c3)c(NC(=O)NC(C)(C)C)nc2n1 [PD173074] (first compound 2 µM, partner dose 0.1 µM)", "cleaved PARP positive nuclei fraction": 175},
      {"compound": "N#Cc1c(O)c2c(-c3ccc(-c4ccccc4O)cc3)csc2[nH]c1=O", "note": "+ O=C(O)C(=O)Nc1sc2c(c1C(=O)O)CCNC2 [TCS401] (first compound 2 µM, partner dose 1.66667 µM)", "cleaved PARP positive nuclei fraction": 316},
      {"compound": "NCC(=O)Nc1ccc(-n2nc(C(F)(F)F)cc2-c2ccc3c(ccc4ccccc43)c2)cc1", "note": "+ Cc1cc([N+](=O)[O-])ccc1NS(=O)(=O)c1cc(Cl)ccc1Cl [FH535] (first compound 1 µM, partner dose 1 µM)", "cleaved PARP positive nuclei fraction": 69.1},
      {"compound": "CCc1ccc(CCOc2ccc(CC3SC(=O)NC3=O)cc2)nc1", "note": "(stereo unspecified) [pioglitazone] + CCCCCCCCCCCC1=C(O)C(=O)C=C(O)C1=O [Embelin] (first compound 2 µM, partner dose 1.2 µM)", "cleaved PARP positive nuclei fraction": 57.6},
      {"compound": "Oc1nc(-c2ccc(C(F)(F)F)cc2)nc2c1CSCC2", "note": "+ CCCCCCCCCCCC1=C(O)C(=O)C=C(O)C1=O [Embelin] (first compound 2 µM, partner dose 1.2 µM)", "cleaved PARP positive nuclei fraction": 134},
      {"compound": "Cc1cc([N+](=O)[O-])ccc1NS(=O)(=O)c1cc(Cl)ccc1Cl", "note": "+ COc1cc(N2CCC(N3CCN(C)CC3)CC2)ccc1Nc1ncc(Cl)c(Nc2ccccc2S(=O)(=O)C(C)C)n1 [NVP-TAE684] (first compound 1 µM, partner dose 0.08 µM)", "cleaved PARP positive nuclei fraction": 109},
      {"compound": "COc1cc2ncnc(Nc3ccc(Oc4ccccc4)cc3)c2cc1OC", "note": "+ Cn1cc(/C=C2\\C(=O)Nc3cccnc32)c2ccccc21 [GW441756] (first compound 2 µM, partner dose 0.4 µM)", "cleaved PARP positive nuclei fraction": 63.7},
      {"compound": "CN(C)S(=O)(=O)c1ccc2c(c1)/C(=C/c1cc3c([nH]1)CCCC3)C(=O)N2", "note": "+ O=C1NC(=O)/C(=C/c2ccc(-c3ccc(F)cc3O)o2)S1 [AS252424] (first compound 0.4 µM, partner dose 1 µM)", "cleaved PARP positive nuclei fraction": 139},
      {"compound": "COc1cc2ncnc(Nc3ccc(Oc4ccccc4)cc3)c2cc1OC", "note": "+ CCCCCCCCCCCC1=C(O)C(=O)C=C(O)C1=O [Embelin] (first compound 2 µM, partner dose 1.2 µM)", "cleaved PARP positive nuclei fraction": 104},
      {"compound": "O=C(O)c1ccc(-c2c[nH]c3ncc(-c4ccccc4)cc23)cc1C1CCCC1", "note": "+ COc1cc2ncnc(Nc3ccc(Oc4ccccc4)cc3)c2cc1OC [SrcI1] (first compound 0.16 µM, partner dose 2 µM)", "cleaved PARP positive nuclei fraction": 184},
      {"compound": "NCC(=O)Nc1ccc(-n2nc(C(F)(F)F)cc2-c2ccc3c(ccc4ccccc43)c2)cc1", "note": "+ Oc1cc(-c2nc(-c3ccccc3)[nH]c2-c2ccncc2)ccc1Cl [L779450] (first compound 1 µM, partner dose 0.2 µM)", "cleaved PARP positive nuclei fraction": 166},
      {"compound": "COc1cc2c(Oc3ccc4[nH]c(C)cc4c3F)ncnc2cc1OCCCN1CCCC1", "note": "[cediranib] + O=C1NC(=O)/C(=C/c2ccc(-c3ccc(F)cc3O)o2)S1 [AS252424] (first compound 0.4 µM, partner dose 1 µM)", "cleaved PARP positive nuclei fraction": 45.4},
      {"compound": "CN(C)S(=O)(=O)c1ccc2c(c1)/C(=C/c1cc3c([nH]1)CCCC3)C(=O)N2", "note": "+ Cn1cc(/C=C2\\C(=O)Nc3cccnc32)c2ccccc21 [GW441756] (first compound 0.4 µM, partner dose 0.4 µM)", "cleaved PARP positive nuclei fraction": 83.3},
      {"compound": "N#Cc1c(O)c2c(-c3ccc(-c4ccccc4O)cc3)csc2[nH]c1=O", "note": "+ Cn1cc(/C=C2\\C(=O)Nc3cccnc32)c2ccccc21 [GW441756] (first compound 2 µM, partner dose 0.4 µM)", "cleaved PARP positive nuclei fraction": 88.1},
      {"compound": "O=C(Nc1ccccc1)c1cc([N+](=O)[O-])ccc1Cl", "note": "+ CCCCCCCCCCCC1=C(O)C(=O)C=C(O)C1=O [Embelin] (first compound 2 µM, partner dose 1.2 µM)", "cleaved PARP positive nuclei fraction": 137},
      {"compound": "CCc1ccc(CCOc2ccc(CC3SC(=O)NC3=O)cc2)nc1", "note": "(stereo unspecified) [pioglitazone] + O=C(Nc1ccccc1)c1cc([N+](=O)[O-])ccc1Cl [GW9662] (first compound 2 µM, partner dose 2 µM)", "cleaved PARP positive nuclei fraction": 93.1},
      {"compound": "COc1ccc2c(c1)CCC1C2CCC2(C)C(NCCCCCCN3C(=O)C=CC3=O)CCC12", "note": "(stereo unspecified) + CCCCCCCCCCCC1=C(O)C(=O)C=C(O)C1=O [Embelin] (first compound 0.4 µM, partner dose 1.2 µM)", "cleaved PARP positive nuclei fraction": 312},
      {"compound": "Oc1cc(-c2nc(-c3ccccc3)[nH]c2-c2ccncc2)ccc1Cl", "note": "+ CCCCCCCCCCCC1=C(O)C(=O)C=C(O)C1=O [Embelin] (first compound 0.2 µM, partner dose 1.2 µM)", "cleaved PARP positive nuclei fraction": 46.9},
      {"compound": "Oc1cc(-c2nc(-c3ccccc3)[nH]c2-c2ccncc2)ccc1Cl", "note": "+ Cc1cc([N+](=O)[O-])ccc1NS(=O)(=O)c1cc(Cl)ccc1Cl [FH535] (first compound 0.2 µM, partner dose 1 µM)", "cleaved PARP positive nuclei fraction": 94.9},
      {"compound": "COc1cc2c(Oc3ccc4[nH]c(C)cc4c3F)ncnc2cc1OCCCN1CCCC1", "note": "[cediranib] + CCCCCCCCCCCC1=C(O)C(=O)C=C(O)C1=O [Embelin] (first compound 0.4 µM, partner dose 1.2 µM)", "cleaved PARP positive nuclei fraction": 110},
      {"compound": "NCC(=O)Nc1ccc(-n2nc(C(F)(F)F)cc2-c2ccc3c(ccc4ccccc43)c2)cc1", "note": "+ Cn1cc(/C=C2\\C(=O)Nc3cccnc32)c2ccccc21 [GW441756] (first compound 1 µM, partner dose 0.4 µM)", "cleaved PARP positive nuclei fraction": 89.2},
      {"compound": "Oc1nc(-c2ccc(C(F)(F)F)cc2)nc2c1CSCC2", "note": "+ O=c1cc(-c2cccc3c2Sc2ccccc2S3)oc(N2CCOCC2)c1 [KU55933] (first compound 2 µM, partner dose 1 µM)", "cleaved PARP positive nuclei fraction": 92.3},
      {"compound": "O=C(O)C(=O)Nc1sc2c(c1C(=O)O)CCNC2", "note": "+ O=C1NC(=O)/C(=C/c2ccc(-c3ccc(F)cc3O)o2)S1 [AS252424] (first compound 1.66667 µM, partner dose 1 µM)", "cleaved PARP positive nuclei fraction": 185},
      {"compound": "COC(=O)c1sccc1S(=O)(=O)Nc1ccc(Nc2ccccc2)cc1OC", "note": "+ COc1cc(N2CCC(N3CCN(C)CC3)CC2)ccc1Nc1ncc(Cl)c(Nc2ccccc2S(=O)(=O)C(C)C)n1 [NVP-TAE684] (first compound 1 µM, partner dose 0.08 µM)", "cleaved PARP positive nuclei fraction": 112},
      {"compound": "NCC(=O)Nc1ccc(-n2nc(C(F)(F)F)cc2-c2ccc3c(ccc4ccccc43)c2)cc1", "note": "+ COc1ccc(-c2ccc3c(N4CCOCC4)nc(N4C[C@@H](C)O[C@@H](C)C4)nc3n2)cc1CO [KU0063794] (first compound 1 µM, partner dose 0.02 µM)", "cleaved PARP positive nuclei fraction": 91},
      {"compound": "CN(C)S(=O)(=O)c1ccc2c(c1)/C(=C/c1cc3c([nH]1)CCCC3)C(=O)N2", "note": "+ N#Cc1c(O)c2c(-c3ccc(-c4ccccc4O)cc3)csc2[nH]c1=O [A769662] (first compound 0.4 µM, partner dose 2 µM)", "cleaved PARP positive nuclei fraction": 60.8},
      {"compound": "CN(C)S(=O)(=O)c1ccc2c(c1)/C(=C/c1cc3c([nH]1)CCCC3)C(=O)N2", "note": "+ Oc1nc(-c2ccc(C(F)(F)F)cc2)nc2c1CSCC2 [XAV939] (first compound 0.4 µM, partner dose 2 µM)", "cleaved PARP positive nuclei fraction": 129},
      {"compound": "COc1cc2ncnc(Nc3ccc(Oc4ccccc4)cc3)c2cc1OC", "note": "+ Oc1cc(-c2nc(-c3ccccc3)[nH]c2-c2ccncc2)ccc1Cl [L779450] (first compound 2 µM, partner dose 0.2 µM)", "cleaved PARP positive nuclei fraction": 105},
      {"compound": "NCC(=O)Nc1ccc(-n2nc(C(F)(F)F)cc2-c2ccc3c(ccc4ccccc43)c2)cc1", "note": "+ CCCCCCCCCCCC1=C(O)C(=O)C=C(O)C1=O [Embelin] (first compound 1 µM, partner dose 1.2 µM)", "cleaved PARP positive nuclei fraction": 95.5},
      {"compound": "COc1cc2ncnc(Nc3ccc(Oc4ccccc4)cc3)c2cc1OC", "note": "+ c1cc(-c2cnn3cc(-c4ccc(OCCN5CCCCC5)cc4)cnc23)ccn1 [Dorsomorphin] (first compound 2 µM, partner dose 0.4 µM)", "cleaved PARP positive nuclei fraction": 93.6}
    ]}
  ]
}
